Data on 42 sequences can be found in publication PMC7819943, “Rice protein-binding microarrays: a tool to detect cis-acting elements near promoter regions in rice”.

The other results are listed elsewhere or left out.

The experiment deals with T1, OsSMF1 (Oryza sativa, UniProt Q6ZLB0 1-436).
T1 sequence: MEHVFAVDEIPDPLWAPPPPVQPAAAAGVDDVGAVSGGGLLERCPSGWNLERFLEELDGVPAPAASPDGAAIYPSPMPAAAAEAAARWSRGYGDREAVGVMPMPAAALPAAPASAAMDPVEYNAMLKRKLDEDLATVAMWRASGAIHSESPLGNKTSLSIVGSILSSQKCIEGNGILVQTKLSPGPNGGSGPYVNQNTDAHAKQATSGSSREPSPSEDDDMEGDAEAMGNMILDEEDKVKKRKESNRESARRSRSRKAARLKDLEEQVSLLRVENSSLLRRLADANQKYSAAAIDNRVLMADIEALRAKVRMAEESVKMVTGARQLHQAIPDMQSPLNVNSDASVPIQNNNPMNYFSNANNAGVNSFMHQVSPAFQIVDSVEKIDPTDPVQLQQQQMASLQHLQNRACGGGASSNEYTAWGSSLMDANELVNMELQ
Nature of the experiment: protein-binding microarray (RPBM); PBS, 2% BSA, 51.3 ng/ul salmon testes DNA, 50 uM zinc acetate, 200 nM TF, 25 C, 1 h; high values mean tight binding. To be noted: protein: recombinant; tags: N-terminal polyhistidine and DsRed monomer fusion (pET32a); chain copies: 2; label: CyDye5-dUTP incorporated in the synthesized complementary strand; 3' TTTTT single-stranded linker to array surface; dsDNA, one strand shown. The procedure, abridged: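 Transcription factors, each fused N-terminally to a polyhistidine tag and DsRed, were expressed in E. coli BL21-CodonPlus and purified on Ni–NTA. A custom Agilent array was made double-stranded by primer extension with Cy5-dUTP and blocked with 2% BSA. It was incubated with 200 nM protein in PBS, 2% BSA, salmon testes DNA and 50 µM zinc acetate at 25 °C for 1 h, then washed. The binding signal is per-feature fluorescence intensity (arbitrary units) read on an Axon 4000B scanner.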
In the case of “CAACCATCCAAGACTACCGTGGCAGCTTCTCAGCCCAAGGCGGAGTCACCTAGTGCAG”, the binding signal is 3670 fluorescence intensity (a.u.).

Consider “AAGTAGCGGTGGTGGTTGTCTGGCTGACACCACCATCTGCCGGAGTCACCTAGTGCAG”, for which the binding signal was 6120 fluorescence intensity (a.u.). Consider “CTCTCCCGCTGCCGCCGCCTCCGGCTTCCCCGTCGCCTCGCGGAGTCACCTAGTGCAG”, for which the binding signal was 3260 fluorescence intensity (a.u.). Take “CAAGTTGCATGCGTGTCTTCTTCCTACCATCACTTCTCTCCGGAGTCACCTAGTGCAG”: the binding signal is 5900 fluorescence intensity (a.u.).

For “TATCAAATATCCGATGTGACATGTGACATGACATCTAAAACGGAGTCACCTAGTGCAG”, the binding signal was 3500 fluorescence intensity (a.u.).

For the sequence “ATTCTGTTGAGGGATGGATGGATCGGTTTTACCATTAATGCGGAGTCACCTAGTGCAG”, the binding signal was 3710 fluorescence intensity (a.u.). For “CGGGGCACGCCACGGGTGCACATACGTGATGCACACGTACCGGAGTCACCTAGTGCAG”, the binding signal is 5170 fluorescence intensity (a.u.). The same measure for “TCGAGGTGAGCAGAGAGAGAGGATTGAAGAAGAAGGAGAACGGAGTCACCTAGTGCAG”: 35800 fluorescence intensity (a.u.); for “GCTTGTGCCGAGCCAGCTCACGCCCAATTCATGACGCCTCCGGAGTCACCTAGTGCAG”: 4580 fluorescence intensity (a.u.). As for “GTGGTGGTGGTGTGTGAGCTCGGGGCTTGGGGTTTTGCGGCGGAGTCACCTAGTGCAG”, the binding signal was 3650 fluorescence intensity (a.u.). On to “AGAGAGACGTGGGGTTGTCCATGTCATGTTTCTCGTACAACGGAGTCACCTAGTGCAG”, for which the binding signal is 5800 fluorescence intensity (a.u.).

“CCGTGCCCGCGCCCGCGCCGCCACATGGAGCCGAAGCCAACGGAGTCACCTAGTGCAG”: the binding signal is 3360 fluorescence intensity (a.u.).

On to “ACGGGCAAAGCGGCCGCCACGTAGACGTGTACATCTTCTCCGGAGTCACCTAGTGCAG”, for which the binding signal is 18000 fluorescence intensity (a.u.). As to “CTGCGACGCGTCGCTGCCGTACGCGGACCGGGTGCGGGACCGGAGTCACCTAGTGCAG”, the binding signal is 4180 fluorescence intensity (a.u.).

In the case of “ATACCTCGGCGTGATGACTCCACCGCGCGATGACTCCGCCCGGAGTCACCTAGTGCAG”, the binding signal is 4390 fluorescence intensity (a.u.). The same measure for “GTCATATTTATTTGGATGATGTGGCATGTTCTGGTGGTGACGGAGTCACCTAGTGCAG”: 15700 fluorescence intensity (a.u.); for “ACGCGTCCTTATCGGTTACTCCTGCCCATGTGGCTCCTCGCGGAGTCACCTAGTGCAG”: 3350 fluorescence intensity (a.u.); for “GTGGTAGATTCTCGTCCCAAGCTTGAGGGACAAGGATTACCGGAGTCACCTAGTGCAG”: 23300 fluorescence intensity (a.u.). On to “ATTATTTTGTTTTGAGTTGGACTAGTCACACAAATTACCGCGGAGTCACCTAGTGCAG”, for which the binding signal was 3470 fluorescence intensity (a.u.).

In the case of “GCCGGTGATTGGCGTGGCGTGGCGTGGCGTGGCGCGGTGTCGGAGTCACCTAGTGCAG”, the binding signal was 5210 fluorescence intensity (a.u.). With “TTAACGTGTACCACTACATGCATGCAGTGACGACAGTCAGCGGAGTCACCTAGTGCAG”, the binding signal is 3150 fluorescence intensity (a.u.).

On to “TCTTTATGATTGCTGCCAACTAATGTTTTCTTTCATACTACGGAGTCACCTAGTGCAG”, for which the binding signal is 4210 fluorescence intensity (a.u.). In the case of “TTTGGGCTTTTGGCTGGACGCGTCACGCGCGCGTTATTATCGGAGTCACCTAGTGCAG”, the binding signal is 5160 fluorescence intensity (a.u.).

Consider “GCTCCACGTACGTACGCGTGTCGCCTCGCGCCGAAGCAAGCGGAGTCACCTAGTGCAG”, for which the binding signal is 5100 fluorescence intensity (a.u.). As to “CTCTCTTTCGCAGAAATCCTGGGCGCCTCTCTGTCAGTTTCGGAGTCACCTAGTGCAG”, the binding signal is 3270 fluorescence intensity (a.u.). Consider “CAACATATTTTCATCATGCATCGACTTTACCTTATATCCTCGGAGTCACCTAGTGCAG”, for which the binding signal was 3150 fluorescence intensity (a.u.). As for “CCGCGTGCTGACGACGATGCGCGGGACCGTGGGCTACCTGCGGAGTCACCTAGTGCAG”, the binding signal is 9360 fluorescence intensity (a.u.). Turning to “TAGCAATCTTTAGATAAGATATGTTCCATCATTCACTTAACGGAGTCACCTAGTGCAG”, the binding signal was 26800 fluorescence intensity (a.u.).

For the sequence “ACCACACGGCATCCGAAGAAGCCCACGTCCCCGTCGCGCCCGGAGTCACCTAGTGCAG”, the binding signal is 4960 fluorescence intensity (a.u.).

On to “ACACATGCTTCAAGTGGCTAAGAGGGCATCCTCCCTTTTACGGAGTCACCTAGTGCAG”, for which the binding signal is 16000 fluorescence intensity (a.u.).

As for “TTTGCGAACGTAATTCCATTAATTAAACACACGTCTATATCGGAGTCACCTAGTGCAG”, the binding signal was 3220 fluorescence intensity (a.u.). In the case of “AGGAAATGAGTGATCTTGCAATGCTGGAAATACTGGATTTCGGAGTCACCTAGTGCAG”, the binding signal is 4990 fluorescence intensity (a.u.). “AACGACATATGTACTTTGTGTCTTTTGACTCTTTCAGGTTCGGAGTCACCTAGTGCAG”: the binding signal was 4770 fluorescence intensity (a.u.). Consider “TACGCCATGTACACGTGCGCCACCTCCCTCTGCGCCTCCACGGAGTCACCTAGTGCAG”, for which the binding signal was 8020 fluorescence intensity (a.u.). Consider “CATCGGACGTCGTCATCGGACGGGTCTTGACTCTTGACCCCGGAGTCACCTAGTGCAG”, for which the binding signal was 4640 fluorescence intensity (a.u.). The same measure for “CCCGAGAGCGAACGGTCGTCTGCCACGTCATTTTCGCCGCCGGAGTCACCTAGTGCAG”: 28200 fluorescence intensity (a.u.). As for “GCCCTCTGGGAGGGCAGAGGACGGCGAAAATGACGTGGCACGGAGTCACCTAGTGCAG”, the binding signal was 33600 fluorescence intensity (a.u.).

As for “CACGGACGTTACGTGGCACAGTACAGTTCTTTGTTTGACGCGGAGTCACCTAGTGCAG”, the binding signal is 6580 fluorescence intensity (a.u.). Consider “TGTTGCTCTCTGATCCCTAGGGTTTACTTTCCCCTCCTCCCGGAGTCACCTAGTGCAG”, for which the binding signal was 5570 fluorescence intensity (a.u.). Regarding “CCAACTTTCCTCGTGGGCTCCACGTGGCAGTGGGGAAAGCCGGAGTCACCTAGTGCAG”, the binding signal was 21300 fluorescence intensity (a.u.). The same measure for “CATCCCGTTACAGAGTCTTTCTTTGCAGACACGTACGCCACGGAGTCACCTAGTGCAG”: 5940 fluorescence intensity (a.u.); for “GACTTTTGTGGGAGGCGCTGGTTTCTGCTCTACTCACAGCCGGAGTCACCTAGTGCAG”: 3940 fluorescence intensity (a.u.).
